Where two headings read alike, the source gives them in different places.

This is an account of results in paper PMC5106528, “High-Throughput Toxicity and Phenotypic Screening of 3D Human Neural Progenitor Cell Cultures on a Microarray Chip Platform” (Stem Cell Reports, 2016).

The subject of experiment [1] is differentiating ReNcell VM NPCs. Nature of the experiment: cells. The following applies: Homo sapiens. The procedure: (§1) On-chip cultures of undifferentiated and 10-day differentiated NPCs were stamped with WellChips filled with compound-containing solutions and incubated for 72 hr prior to viability assessment. Vehicle-control normalized viabilities were plotted against compound concentration to generate dose-response plots (Figures 5A and S4). […] The sigmoidal fits for undifferentiated and differentiating NPCs were compared to assess whether differential sensitivities (i.e., different IC50 values) existed for the screened compounds.
(§2) Cell viability was determined in 3D on-chip cultures using a mammalian cell viability assay (LIVE/DEAD, Invitrogen). Prior to the assay, dead cell controls were prepared with 30 min incubation in a WellChip containing either […] 0.5% (w/v) saponin-DMEM/F12 medium in its microwells. […] After staining, PillarChips were rinsed twice with warm DPBS and incubated in DPBS containing 50 mM trehalose (Sigma) for 10 min before rapid drying with nitrogen and storage in the dark. Dried PillarChips were imaged with a Thermo Scientific Cellomics ArrayScan VTI high-content system.
(§3) Undifferentiated and differentiated microchip cultures were prepared as described above. Chemicals were purchased from Sigma or the NIH Small Molecule Repository (Table S2). Concentrated stocks were prepared and diluted into ReNcell Maintenance Medium to prepare the highest screened concentration solution for each compound. Four-fold serial dilutions were made in ReNcell Maintenance Medium, with all solutions having a final concentration of 0.5% or 1% DMSO (v/v) and 20 μg/mL Matrigel. For undifferentiated cultures, the solutions also contained 20 ng/mL of EGF and FGF2. These solutions were printed into WellChips, covered with a gas-permeable membrane, and warmed at 37°C for at least 5 min before stamping with cells. Each WellChip contained six compounds each at six concentrations (n = 10 biological replicates for each concentration) and the appropriate medium containing 0.5% or 1% DMSO for vehicle and dead controls (n = 32 biological replicates per control). PillarChip cultures were incubated with compounds for 72 hr with daily medium exchange to freshly prepared WellChips containing compounds at the appropriate concentrations. […] On-chip toxicity screens were repeated three times for undifferentiated and differentiated cultures. […]

Experiment [2] has as its system undifferentiated ReNcell VM NPCs. Briefly: cells. The following applies: Homo sapiens, 72 h. The procedure:
as §1, §2, §3

The term IC50 denotes the point on the concentration scale where inhibition reaches its midpoint. With `CN(C)CCOC(c1ccccc1)c1ccccc1` [Diphenhydramine], the IC50 in experiment [1] (read-out: Viability Effects Differentiating IC50) is 189 µM; in experiment [1] (read-out: Viability Effects Differentiating log(IC50 ± SEM) (converted)), 200 µM; in experiment [2] (read-out: Viability Effects Undifferentiated IC50), 257 µM; in experiment [2] (read-out: Viability Effects Undifferentiated log(IC50 ± SEM) (converted)) it was 257 µM.
